Survivor count and T/C data for 13 molecules are collected here from PubChem BioAssay AID330 (DTP/NCI, 2004).

The subject of the assay is P388 leukemia ip, CD2F1 mice, survival T/C. Nature of the assay: NCI In Vivo Anticancer Drug Screen. Data for tumor model P388 Leukemia (intraperitoneal) in CD2F1 (CDF1) mice. The settings on record: T/C endpoint: median survival time, higher T/C = longer survival.
Setting [1] is: dose: 240.0 mg/kg/injection, schedule: Q01DX005 (ip), vehicle: saline with Tween-80.

The list shows only some results of the screen, not a fair sample: it is rich in T/C values a quarter to a half above the control, in often repeated tests (any T/C) and in doses without a T/C. Further doses and runs are listed elsewhere. T/C gives the treated animals as a percentage of the vehicle group. Some doses have a count of surviving animals in place of a T/C: the source files T/C as zero there, which appears to mark a toxic dose or a test without result, not a measured value. Some doses without a T/C left all or most animals alive at the check, yet need not have been tolerated: survival well below the control is almost never listed, so the zero probably covers shortened survival too. Counts of survivors are from the toxicity check (mostly the fifth day) where no day follows; animals may have died later. Schedule codes are those of the source, taken here to give the interval after Q, in days (D) or hours (H), and the number of doses after X. Where survival is the endpoint, the PubChem record calls one and a half times the control and up active, and a quarter to a half above the control has no call in these data; cut-offs in other NCI protocols can differ. Additions like (4×) stand for listed records that agree. Some entries were tested several times; the results are listed from low to high.

On to `Nc1ccc2c(c1)CN1C(=O)c3ccccc3C1=N2`, for which the survivor count is 6 of 6 (dose: 6.25 mg/kg/injection, schedule: Q01DX009 (ip), vehicle: saline); 6 of 6 (dose: 12.5 mg/kg/injection, schedule: Q01DX009 (ip), vehicle: saline); 6 of 6 (dose: 200.0 mg/kg/injection, schedule: Q01DX009 (ip), vehicle: saline with Tween-80). Further, the T/C was 138 % of control (dose: 33.0 mg/kg/injection, schedule: Q01DX009 (ip), vehicle: saline with Tween-80, evaluated on day 29); 131 and 147 % of control (dose: 33.0 mg/kg/injection, schedule: Q01DX009 (ip), vehicle: saline with Tween-80, evaluated on day 30); 99, 103, 105, 114, 115, 118 % of control (dose: 33.0 mg/kg/injection, schedule: Q01DX009 (ip), vehicle: saline with Tween-80, evaluated on day 45); 99 and 100 % of control (dose: 33.0 mg/kg/injection, schedule: Q01DX009 (ip), vehicle: saline with Tween-80, evaluated on day 60); 136 % of control (dose: 33.4 mg/kg/injection, schedule: Q01DX009 (ip), vehicle: saline with Tween-80); 142 % of control (dose: 50.0 mg/kg/injection, schedule: Q01DX009 (ip), vehicle: saline with Tween-80, evaluated on day 29). Besides, the T/C was 112, 118, 133, 156, 158, 161 % of control (dose: 50.0 mg/kg/injection, schedule: Q01DX009 (ip), vehicle: saline with Tween-80, evaluated on day 30); 97, 105, 111, 114, 124, 125 % of control (dose: 50.0 mg/kg/injection, schedule: Q01DX009 (ip), vehicle: saline with Tween-80, evaluated on day 45); 92 and 117 % of control (dose: 50.0 mg/kg/injection, schedule: Q01DX009 (ip), vehicle: saline with Tween-80, evaluated on day 60); 141 % of control (dose: 70.0 mg/kg/injection, schedule: Q01DX009 (ip), vehicle: saline with Tween-80); 148 % of control (dose: 75.0 mg/kg/injection, schedule: Q01DX009 (ip), vehicle: saline with Tween-80, evaluated on day 29); 148, 156, 200 % of control (dose: 75.0 mg/kg/injection, schedule: Q01DX009 (ip), vehicle: saline with Tween-80, evaluated on day 30). The T/C is 111, 113, 130, 136, 138 % of control (2×) (dose: 75.0 mg/kg/injection, schedule: Q01DX009 (ip), vehicle: saline with Tween-80, evaluated on day 45); 100 and 105 % of control (dose: 75.0 mg/kg/injection, schedule: Q01DX009 (ip), vehicle: saline with Tween-80, evaluated on day 60); 120 % of control (dose: 112.0 mg/kg/injection, schedule: Q01DX009 (ip), vehicle: saline with Tween-80, evaluated on day 29); 118 and 169 % of control (dose: 112.0 mg/kg/injection, schedule: Q01DX009 (ip), vehicle: saline with Tween-80, evaluated on day 30); 110, 111, 112, 122 (2×), 130 % of control (dose: 112.0 mg/kg/injection, schedule: Q01DX009 (ip), vehicle: saline with Tween-80, evaluated on day 45); 128 % of control (2×) (dose: 112.0 mg/kg/injection, schedule: Q01DX009 (ip), vehicle: saline with Tween-80, evaluated on day 60). Also, the T/C was 118 % of control (dose: 169.0 mg/kg/injection, schedule: Q01DX009 (ip), vehicle: saline with Tween-80, evaluated on day 30); 101 and 104 % of control (dose: 169.0 mg/kg/injection, schedule: Q01DX009 (ip), vehicle: saline with Tween-80, evaluated on day 45); 96 % of control (dose: 169.0 mg/kg/injection, schedule: Q01DX009 (ip), vehicle: saline with Tween-80, evaluated on day 60).

`COc1cc(C(=O)O)cc(C(=O)O)c1`: the survivor count is recorded as 3 of 6 (dose: 50.0 mg/kg/injection, schedule: Q01DX009 (ip), vehicle: saline); 0 of 6 (dose: 100.0 mg/kg/injection, schedule: Q01DX009 (ip), vehicle: saline); 0 of 6 (dose: 200.0 mg/kg/injection, schedule: Q01DX009 (ip), vehicle: saline).

As for `Cc1noc(-c2ccc([N+](=O)[O-])o2)n1`, the survivor count (dose: 300.0 mg/kg/injection, schedule: Q01DX009 (ip), vehicle: Klucel (hydroxypropylcellulose) (HPC)) is on record as 4 of 6.

Regarding `COc1cccc2c1cc([N+](=O)[O-])c1c(C(=O)O)cc3c(c12)OCO3`, the survivor count (dose: 10.0 mg/kg/injection, schedule: Q01DX009 (ip), vehicle: Klucel (hydroxypropylcellulose) (HPC)) is 6 of 6 and the survivor count (dose: 20.0 mg/kg/injection, schedule: Q01DX009 (ip), vehicle: saline) is 6 of 6.

Turning to `Cc1ccc(-c2cn3ccsc3n2)cc1`, the survivor count (dose: 400.0 mg/kg/injection, schedule: Q01DX001 (ip), vehicle: Klucel (hydroxypropylcellulose) (HPC)) is 3 of 6.

Turning to `CC(C)=CCC(OC(=O)C=C(C)C)C1=CC(=O)c2c(O)ccc(O)c2C1=O` (stereo unspecified), the survivor count was 1 of 6 (dose: 25.0 mg/kg/injection, schedule: Q01DX009 (ip), vehicle: water); 4 of 6 (dose: 40.0 mg/kg/injection, schedule: Q01DX009 (ip), vehicle: saline with Tween-80); 1 of 6 (dose: 50.0 mg/kg/injection, schedule: Q01DX009 (ip), vehicle: water).

For `O=C1C(CCl)=CS(=O)(=O)c2ccccc21`, the survivor count by setting is: (dose: 50.0 mg/kg/injection, schedule: Q01DX005 (ip), vehicle: Klucel (hydroxypropylcellulose) (HPC)) 2 of 6; (dose: 100.0 mg/kg/injection, schedule: Q01DX005 (ip), vehicle: Klucel (hydroxypropylcellulose) (HPC)) 0 of 6; (dose: 200.0 mg/kg/injection, schedule: Q01DX005 (ip), vehicle: Klucel (hydroxypropylcellulose) (HPC)) 0 of 6.

Regarding `O=C(O)CCSSCCCCS(=O)O`, the T/C by setting is: (dose: 50.0 mg/kg/injection, schedule: Q01DX005 (ip), vehicle: saline) 126 % of control; (dose: 100.0 mg/kg/injection, schedule: Q01DX005 (ip), vehicle: saline) 131 % of control. The survivor count (dose: 200.0 mg/kg/injection, schedule: Q01DX005 (ip), vehicle: saline) was 0 of 6.

Take `CC1(C)N=C(N)N=C(N)N1c1ccc(CCCCc2ccc(Cl)c(S(=O)(=O)F)c2)c(Cl)c1`: the T/C (dose: 1.0 mg/kg/injection, schedule: Q01DX009 (ip), vehicle: saline with Tween-80) is 141 % of control; the T/C (dose: 2.2 mg/kg/injection, schedule: Q01DX009 (ip), vehicle: saline) is 135 % of control; the T/C (dose: 3.3 mg/kg/injection, schedule: Q01DX009 (ip), vehicle: saline) was 130 % of control; the T/C (dose: 4.0 mg/kg/injection, schedule: Q01DX009 (ip), vehicle: saline with Tween-80) is 137 % of control; the T/C (dose: 5.0 mg/kg/injection, schedule: Q01DX009 (ip), vehicle: saline) is 140 % of control; the T/C (dose: 5.5 mg/kg/injection, schedule: Q01DX009 (ip), vehicle: saline) is 131 % of control. Also, the T/C runs as follows: (dose: 7.5 mg/kg/injection, schedule: Q01DX009 (ip), vehicle: saline) 145 % of control; (dose: 8.0 mg/kg/injection, schedule: Q01DX009 (ip), vehicle: saline) 136 % of control; (dose: 12.0 mg/kg/injection, schedule: Q01DX009 (ip), vehicle: saline) 145 % of control. Besides, the survivor count (dose: 40.0 mg/kg/injection, schedule: Q01DX009 (ip), vehicle: saline) was 2 of 6.

Regarding `C=C(COC(=O)Nc1cc(Cl)ccc1C)C(=O)O`, the survivor count (dose: 100.0 mg/kg/injection, schedule: Q01DX009 (ip), vehicle: Klucel (hydroxypropylcellulose) (HPC)) is recorded as 3 of 6 and the survivor count (dose: 200.0 mg/kg/injection, schedule: Q01DX009 (ip), vehicle: Klucel (hydroxypropylcellulose) (HPC)) is 2 of 6.

`NC(=NCc1ccccc1)N/N=C\c1ccnc2ccccc12`: the survivor count is 1 of 6 (dose: 120.0 mg/kg/injection, schedule: Q01DX005 (ip), vehicle: Klucel (hydroxypropylcellulose) (HPC)) and 0 of 6 (dose: 240.0 mg/kg/injection, schedule: Q01DX005 (ip), vehicle: Klucel (hydroxypropylcellulose) (HPC)).

Take `COc1cccc(-c2nc(SC)nc(Cl)c2C#N)c1`: the survivor count under setting [1] is on record as 1 of 6.

As for `CN(C)CC(C)(CN(C)C)C(=O)/C=C/c1c(Cl)cccc1Cl`, the survivor count under setting [1] is 1 of 6.
